Test results: the supplement of paper PMC10849652
The list shows a part of the results.

Protein sequences, listed by entry. Tags and fused reporters are not part of them. Lines headed by an entry give the natural chain unless they say otherwise; changes in a name come on top.
UniProt Q9NPJ3: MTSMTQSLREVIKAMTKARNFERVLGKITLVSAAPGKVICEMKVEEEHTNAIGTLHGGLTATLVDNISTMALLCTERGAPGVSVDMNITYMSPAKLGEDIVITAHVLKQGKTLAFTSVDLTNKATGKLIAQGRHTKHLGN
UniProt Q9NUJ1: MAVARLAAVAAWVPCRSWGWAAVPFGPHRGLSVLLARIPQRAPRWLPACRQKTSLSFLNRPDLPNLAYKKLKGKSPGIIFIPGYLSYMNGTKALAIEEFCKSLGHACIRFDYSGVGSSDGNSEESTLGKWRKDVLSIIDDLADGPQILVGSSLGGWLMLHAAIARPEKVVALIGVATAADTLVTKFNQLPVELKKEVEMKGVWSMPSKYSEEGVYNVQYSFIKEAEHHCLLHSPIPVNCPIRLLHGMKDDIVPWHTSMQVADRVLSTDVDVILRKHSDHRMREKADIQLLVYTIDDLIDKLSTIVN
UniProt Q9NR19, whole entry, looked up: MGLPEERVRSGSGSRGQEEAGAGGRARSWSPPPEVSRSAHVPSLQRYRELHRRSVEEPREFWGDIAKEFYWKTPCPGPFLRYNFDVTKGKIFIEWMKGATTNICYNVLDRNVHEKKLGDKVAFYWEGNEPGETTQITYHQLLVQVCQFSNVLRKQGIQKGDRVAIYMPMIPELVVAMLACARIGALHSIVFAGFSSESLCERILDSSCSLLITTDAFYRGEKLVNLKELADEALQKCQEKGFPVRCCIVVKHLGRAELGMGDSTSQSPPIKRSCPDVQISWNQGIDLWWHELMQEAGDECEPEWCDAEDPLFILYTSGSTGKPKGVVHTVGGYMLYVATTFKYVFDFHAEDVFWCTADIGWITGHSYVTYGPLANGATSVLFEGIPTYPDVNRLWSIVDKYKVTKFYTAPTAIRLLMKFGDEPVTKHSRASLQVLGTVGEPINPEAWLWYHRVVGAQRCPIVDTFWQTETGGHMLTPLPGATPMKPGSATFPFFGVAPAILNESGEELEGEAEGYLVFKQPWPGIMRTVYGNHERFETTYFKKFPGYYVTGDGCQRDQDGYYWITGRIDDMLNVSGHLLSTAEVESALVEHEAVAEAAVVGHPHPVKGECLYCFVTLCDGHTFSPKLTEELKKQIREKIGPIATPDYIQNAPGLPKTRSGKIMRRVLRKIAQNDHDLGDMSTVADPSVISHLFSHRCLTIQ
UniProt Q96EY9: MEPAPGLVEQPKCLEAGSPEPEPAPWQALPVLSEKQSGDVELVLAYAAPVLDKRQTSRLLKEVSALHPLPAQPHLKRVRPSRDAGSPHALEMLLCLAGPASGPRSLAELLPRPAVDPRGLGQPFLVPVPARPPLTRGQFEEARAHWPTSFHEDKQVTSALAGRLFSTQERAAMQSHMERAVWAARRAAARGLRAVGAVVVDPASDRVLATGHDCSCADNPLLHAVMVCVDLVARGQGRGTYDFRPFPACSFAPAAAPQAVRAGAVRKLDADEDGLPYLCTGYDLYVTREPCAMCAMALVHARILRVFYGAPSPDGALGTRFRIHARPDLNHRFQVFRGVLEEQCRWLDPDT
UniProt Q9NRN7: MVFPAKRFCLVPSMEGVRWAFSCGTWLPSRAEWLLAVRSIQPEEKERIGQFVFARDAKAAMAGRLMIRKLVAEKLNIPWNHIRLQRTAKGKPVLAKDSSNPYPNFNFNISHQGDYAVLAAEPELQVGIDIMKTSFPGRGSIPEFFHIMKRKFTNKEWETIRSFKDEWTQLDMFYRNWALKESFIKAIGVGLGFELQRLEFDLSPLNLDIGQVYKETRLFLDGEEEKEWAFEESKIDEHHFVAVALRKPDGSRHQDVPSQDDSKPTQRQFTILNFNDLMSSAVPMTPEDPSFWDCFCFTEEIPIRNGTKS
UniProt Q03154: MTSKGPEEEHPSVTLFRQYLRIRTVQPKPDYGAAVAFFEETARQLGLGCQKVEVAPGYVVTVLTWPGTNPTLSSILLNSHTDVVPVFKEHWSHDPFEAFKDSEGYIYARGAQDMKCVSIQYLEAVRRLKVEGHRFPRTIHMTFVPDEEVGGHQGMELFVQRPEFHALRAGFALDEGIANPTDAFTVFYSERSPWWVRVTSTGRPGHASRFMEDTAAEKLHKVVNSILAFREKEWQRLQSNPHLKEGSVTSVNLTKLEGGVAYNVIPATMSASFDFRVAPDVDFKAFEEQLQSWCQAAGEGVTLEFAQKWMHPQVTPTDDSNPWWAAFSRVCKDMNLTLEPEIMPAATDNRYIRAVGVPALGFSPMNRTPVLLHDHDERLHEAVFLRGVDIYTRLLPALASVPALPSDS
UniProt Q9NUT2: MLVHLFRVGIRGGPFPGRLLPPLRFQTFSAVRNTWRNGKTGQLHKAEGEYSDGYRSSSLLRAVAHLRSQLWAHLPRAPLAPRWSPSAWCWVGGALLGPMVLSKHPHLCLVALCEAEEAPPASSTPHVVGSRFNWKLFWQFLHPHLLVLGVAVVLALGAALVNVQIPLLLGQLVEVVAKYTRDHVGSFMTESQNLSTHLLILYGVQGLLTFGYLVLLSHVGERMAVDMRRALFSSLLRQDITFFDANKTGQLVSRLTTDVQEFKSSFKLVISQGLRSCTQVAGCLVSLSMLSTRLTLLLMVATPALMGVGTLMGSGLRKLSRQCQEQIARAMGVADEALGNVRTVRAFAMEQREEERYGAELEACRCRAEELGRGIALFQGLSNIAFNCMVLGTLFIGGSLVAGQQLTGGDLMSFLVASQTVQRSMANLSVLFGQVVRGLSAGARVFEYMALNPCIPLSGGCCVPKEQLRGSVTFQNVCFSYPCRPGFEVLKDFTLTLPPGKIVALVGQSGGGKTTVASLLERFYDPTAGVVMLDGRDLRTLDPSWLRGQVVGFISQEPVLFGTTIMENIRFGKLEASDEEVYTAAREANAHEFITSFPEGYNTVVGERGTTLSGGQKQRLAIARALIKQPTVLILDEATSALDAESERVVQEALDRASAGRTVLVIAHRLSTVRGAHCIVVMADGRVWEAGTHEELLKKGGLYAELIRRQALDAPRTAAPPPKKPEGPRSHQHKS
UniProt Q86TW2: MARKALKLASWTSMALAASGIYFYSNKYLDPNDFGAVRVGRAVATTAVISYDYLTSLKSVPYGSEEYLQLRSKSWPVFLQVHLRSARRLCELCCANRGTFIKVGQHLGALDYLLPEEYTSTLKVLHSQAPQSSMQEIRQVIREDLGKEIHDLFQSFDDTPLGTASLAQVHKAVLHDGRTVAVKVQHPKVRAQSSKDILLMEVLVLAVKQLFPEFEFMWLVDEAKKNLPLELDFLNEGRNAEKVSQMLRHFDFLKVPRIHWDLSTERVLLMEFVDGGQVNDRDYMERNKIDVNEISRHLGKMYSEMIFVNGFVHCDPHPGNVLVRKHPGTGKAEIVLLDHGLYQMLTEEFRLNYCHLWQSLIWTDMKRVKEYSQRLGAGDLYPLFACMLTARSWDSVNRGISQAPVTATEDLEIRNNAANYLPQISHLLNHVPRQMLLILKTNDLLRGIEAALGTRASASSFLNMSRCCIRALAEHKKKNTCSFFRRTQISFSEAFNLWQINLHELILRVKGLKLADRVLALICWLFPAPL
UniProt Q15067: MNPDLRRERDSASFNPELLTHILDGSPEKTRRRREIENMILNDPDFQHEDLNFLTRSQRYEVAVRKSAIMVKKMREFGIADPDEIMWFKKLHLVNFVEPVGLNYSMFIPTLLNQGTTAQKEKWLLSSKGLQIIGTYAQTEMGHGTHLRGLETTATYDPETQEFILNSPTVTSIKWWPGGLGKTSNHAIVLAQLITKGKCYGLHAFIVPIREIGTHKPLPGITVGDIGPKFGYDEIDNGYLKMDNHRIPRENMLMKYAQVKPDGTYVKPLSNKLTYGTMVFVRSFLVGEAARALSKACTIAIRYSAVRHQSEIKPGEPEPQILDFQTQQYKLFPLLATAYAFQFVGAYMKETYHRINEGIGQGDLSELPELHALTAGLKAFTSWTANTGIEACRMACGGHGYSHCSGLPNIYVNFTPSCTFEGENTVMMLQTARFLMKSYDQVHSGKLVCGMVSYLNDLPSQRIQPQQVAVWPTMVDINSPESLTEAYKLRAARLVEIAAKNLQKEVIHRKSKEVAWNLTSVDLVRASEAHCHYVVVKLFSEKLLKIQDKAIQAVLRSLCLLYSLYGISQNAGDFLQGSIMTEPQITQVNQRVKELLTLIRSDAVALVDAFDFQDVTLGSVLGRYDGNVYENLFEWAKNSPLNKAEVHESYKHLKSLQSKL
UniProt Q6DHV7: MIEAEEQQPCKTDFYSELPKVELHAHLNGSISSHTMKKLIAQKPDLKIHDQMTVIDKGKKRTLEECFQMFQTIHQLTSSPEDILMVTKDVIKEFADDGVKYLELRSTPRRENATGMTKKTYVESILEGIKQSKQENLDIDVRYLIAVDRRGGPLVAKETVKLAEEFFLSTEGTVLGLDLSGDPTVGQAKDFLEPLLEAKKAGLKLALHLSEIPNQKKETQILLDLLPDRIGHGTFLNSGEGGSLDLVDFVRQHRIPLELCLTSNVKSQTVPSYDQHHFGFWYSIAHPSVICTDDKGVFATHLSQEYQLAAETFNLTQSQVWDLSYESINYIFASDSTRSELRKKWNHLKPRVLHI
UniProt Q8N2K0: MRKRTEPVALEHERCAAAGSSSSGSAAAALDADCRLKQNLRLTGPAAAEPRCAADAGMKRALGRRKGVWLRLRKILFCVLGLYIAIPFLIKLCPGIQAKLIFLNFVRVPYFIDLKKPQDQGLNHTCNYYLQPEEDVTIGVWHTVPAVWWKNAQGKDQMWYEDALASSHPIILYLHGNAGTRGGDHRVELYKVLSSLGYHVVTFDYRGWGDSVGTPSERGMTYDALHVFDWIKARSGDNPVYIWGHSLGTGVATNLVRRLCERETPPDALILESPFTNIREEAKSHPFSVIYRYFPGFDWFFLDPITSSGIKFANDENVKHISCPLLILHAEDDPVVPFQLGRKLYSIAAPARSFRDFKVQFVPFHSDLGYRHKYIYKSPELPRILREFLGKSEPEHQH
UniProt P24752: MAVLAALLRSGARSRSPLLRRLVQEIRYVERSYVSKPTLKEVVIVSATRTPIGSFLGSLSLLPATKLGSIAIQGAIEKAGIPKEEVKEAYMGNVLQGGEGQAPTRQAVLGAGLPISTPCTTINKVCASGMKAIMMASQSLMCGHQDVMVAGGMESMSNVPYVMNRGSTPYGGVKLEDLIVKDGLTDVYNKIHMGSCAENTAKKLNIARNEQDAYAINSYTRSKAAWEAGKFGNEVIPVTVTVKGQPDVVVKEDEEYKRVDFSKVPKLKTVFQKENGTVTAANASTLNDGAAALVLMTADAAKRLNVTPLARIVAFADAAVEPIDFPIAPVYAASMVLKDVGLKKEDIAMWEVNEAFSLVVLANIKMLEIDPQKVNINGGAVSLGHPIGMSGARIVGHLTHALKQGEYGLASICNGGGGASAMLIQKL
UniProt P07311: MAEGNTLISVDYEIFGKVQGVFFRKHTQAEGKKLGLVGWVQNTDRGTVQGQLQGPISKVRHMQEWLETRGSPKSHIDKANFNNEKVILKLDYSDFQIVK
UniProt P53396: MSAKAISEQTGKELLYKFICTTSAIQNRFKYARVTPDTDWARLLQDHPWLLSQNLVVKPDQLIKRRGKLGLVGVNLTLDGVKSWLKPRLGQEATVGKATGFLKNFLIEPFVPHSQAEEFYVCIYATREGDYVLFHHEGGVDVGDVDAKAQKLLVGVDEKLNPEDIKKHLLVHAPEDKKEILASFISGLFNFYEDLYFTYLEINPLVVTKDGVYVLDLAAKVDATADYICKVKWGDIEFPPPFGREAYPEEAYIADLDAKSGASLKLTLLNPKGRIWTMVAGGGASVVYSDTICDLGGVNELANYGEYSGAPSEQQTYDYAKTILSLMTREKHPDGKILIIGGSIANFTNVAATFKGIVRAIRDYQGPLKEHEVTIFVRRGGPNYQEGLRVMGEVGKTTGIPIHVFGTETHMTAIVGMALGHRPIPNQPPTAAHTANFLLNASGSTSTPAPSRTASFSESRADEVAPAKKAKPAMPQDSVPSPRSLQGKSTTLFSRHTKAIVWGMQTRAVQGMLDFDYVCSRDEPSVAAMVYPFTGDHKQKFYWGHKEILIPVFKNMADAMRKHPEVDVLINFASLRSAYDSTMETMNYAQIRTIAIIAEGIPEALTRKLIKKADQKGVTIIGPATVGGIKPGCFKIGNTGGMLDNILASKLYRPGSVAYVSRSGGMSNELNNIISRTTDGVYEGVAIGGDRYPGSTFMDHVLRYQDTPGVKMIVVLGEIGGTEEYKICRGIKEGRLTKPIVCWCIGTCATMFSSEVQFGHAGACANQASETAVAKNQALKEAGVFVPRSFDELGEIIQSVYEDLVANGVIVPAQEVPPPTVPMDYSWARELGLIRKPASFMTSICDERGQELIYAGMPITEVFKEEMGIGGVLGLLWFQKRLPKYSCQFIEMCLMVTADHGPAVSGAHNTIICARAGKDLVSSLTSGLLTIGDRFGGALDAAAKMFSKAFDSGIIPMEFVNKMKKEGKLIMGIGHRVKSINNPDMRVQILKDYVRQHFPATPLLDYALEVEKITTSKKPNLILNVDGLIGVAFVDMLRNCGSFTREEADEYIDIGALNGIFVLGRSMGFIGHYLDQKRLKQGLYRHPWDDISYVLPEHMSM

Columns and labels:
Assay in all cases: log2 fold change, soluble protein after heating vs DMSO (PISA); higher = thermal stabilisation; K562 cells, 10 uM, 30 min; active = over 0.2 and 3.5 SD of the protein, either way, in both replicates (recomputed)
[1] = compound: CN1CCN(CCOc2cc(OC3CCOCC3)c3c(Nc4c(Cl)ccc5c4OCO5)ncnc3c2)CC1 [saracatinib]
Summary of the method: (§1)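 Aliquots of K562 cells (2×10^6 cells/mL) treated with 10 μM compound for 30 min were heated for 3 min over 48°C-58°C. After pooling and extraction in PBS with 0.5% NP-40 at 4°C, soluble protein from a 21,000xg, 90 min spin was quantified by TMTpro 16plex LC-MS/MS with channel sums equalised. Thermal stability is expressed against control samples, from duplicates, as a log2 fold change.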

[2] = compound: CN1CCN(c2nc(C3=C(c4c[nH]c5ccccc45)C(=O)NC3=O)c3ccccc3n2)CC1 [sotrastaurin]
Summary of the method: as §1

[3] = compound: CN1CC[C@H](c2c(O)cc(O)c3c(=O)cc(-c4ccccc4Cl)oc23)[C@H](O)C1 [alvocidib]
Summary of the method: as §1

[4] = compound: CN1CCc2c(c3ccccc3n2Cc2ccc(C(=O)NO)cc2)C1 [Tubastatin A]
Summary of the method: as §1

[5] = compound: CNC(=O)C1=CC=CC=C1NC2=NC(=NC=C2Cl)NC3=C(C=C(C=C3)N4CCOCC4)OC
Summary of the method: as §1

[6] = compound: CNC(=O)c1ccc(Nc2ncc(C(F)(F)F)c(NCc3nccnc3N(C)S(C)(=O)=O)n2)cc1 [defactinib]
Summary of the method: as §1

[7] = compound: CNCc1ccc(-c2[nH]c3cc(F)cc4c3c2CCNC4=O)cc1 [rucaparib]
Summary of the method: as §1

[8] = compound: CNc1nc(-c2ccc3c(N)n[nH]c3c2)cc(N2C[C@@H](C(=O)NC3CCCCC3)CC[C@H]2C)n1
Summary of the method: as §1

[9] = compound: COC(=O)N[C@@H](C)CNc1nccc(-c2cn(C(C)C)nc2-c2cc(Cl)cc(NS(C)(=O)=O)c2F)n1 [encorafenib]
Summary of the method: as §1

[10] = compound: COC(=O)[C@H](CCSC)NC(=O)C1=C(C=C(C=C1)NC[C@H](CS)N)C2=CC=CC=C2
Summary of the method: as §1

Measured: log2 fold change

ACOT13 (UniProt Q9NPJ3)
inactive: [1] 0.063 | [2] -0.007 | [3] -0.014 | [4] 0.018 | [5] 0.014 | [6] -0.032 | [7] 0.014 | [8] -0.027 | [9] -0.023 | [10] 0.028

A2M (UniProt P01023)
inactive: [1] 0.441 | [2] 0.227 | [3] 0.103 | [4] -0.088 | [5] 0.118 | [6] -0.1 | [7] -0.227 | [8] 0.111 | [9] 0.061 | [10] 0.109

ACAD8 (UniProt Q9UKU7)
inactive: [1] 0.046 | [2] 0.048 | [3] -0.007 | [4] -0.036 | [5] -0.072 | [6] 0.004 | [7] -0.189 | [8] -0.098 | [9] -0.007 | [10] 0.028

ABHD10 (UniProt Q9NUJ1)
inactive: [1] 0.059 | [2] 0.065 | [3] 0.059 | [4] -0.014 | [5] 0.01 | [6] 0.008 | [7] -0.025 | [8] -0.061 | [9] -0.031 | [10] 0.045

ACTR3 (UniProt P61158)
inactive: [1] 0.1 | [2] 0.014 | [3] 0.035 | [4] -0.027 | [5] 0.02 | [6] -0.018 | [7] -0.038 | [8] -0.062 | [9] 0.001 | [10] 0.008

ACSS2 isoform 2 (UniProt Q9NR19)
inactive: [1] 0.016 | [2] 0.006 | [3] -0.073 | [4] -0.025 | [5] 0.026 | [6] -0.08 | [7] -0.042 | [8] -0.003 | [9] 0.031 | [10] 0.013

ADAT3 (UniProt Q96EY9)
inactive: [1] 0.063 | [2] 0.122 | [3] -0.047 | [4] -0.005 | [5] -0.05 | [6] 0.008 | [7] 0.021 | [8] 0.046 | [9] -0.043 | [10] 0.007

ABCF1 (UniProt Q8NE71)
inactive: [1] -0.081 | [2] 0.015 | [3] 0.114 | [4] -0.005 | [5] 0.05 | [6] 0.177 | [7] 0.213 | [8] 0.037 | [9] 0.08 | [10] -0.004

ACOT8 (UniProt O14734)
inactive: [1] 0.013 | [2] 0.07 | [3] -0.007 | [4] 0.023 | [5] 0.02 | [6] -0.014 | [7] -0.02 | [8] -0.003 | [9] -0.031 | [10] 0.074

ACTN4 (UniProt K7EJH8)
inactive: [1] -0.05 | [2] 0.009 | [3] -0.119 | [4] -0.099 | [5] 0.001 | [7] -0.05 | [8] 0.022 | [9] 0.018

AASDHPPT (UniProt Q9NRN7)
inactive: [1] 0.003 | [2] 0.002 | [3] -0.025 | [4] -0.006 | [5] -0.009 | [6] -0.021 | [7] -0.039 | [8] -0.069 | [9] 0.026 | [10] 0.013

ACAD9 (UniProt Q9H845)
inactive: [1] 0.008 | [2] 0.004 | [4] -0.041 | [5] -0.001 | [6] -0.026 | [7] -0.038 | [8] -0.025 | [9] -0.004 | [10] -0.015

AAMDC (UniProt Q9H7C9)
inactive: [1] 0.034 | [2] 0.026 | [3] -0.033 | [4] 0.032 | [5] 0.009 | [6] 0 | [7] -0.056 | [8] -0.007 | [9] 0.004 | [10] -0.007

ACY1 (UniProt Q03154)
inactive: [1] 0.046 | [2] 0.021 | [3] -0.011 | [4] -0.04 | [5] -0.04 | [6] -0.009 | [7] -0.05 | [8] -0.015 | [9] -0.006 | [10] 0.014

ABCB8 (UniProt Q9NUT2)
inactive: [1] -0.017 | [2] 0.003 | [3] -0.046 | [4] -0.062 | [5] -0.033 | [6] -0.024 | [7] -0.025 | [8] 0.064 | [9] 0.04 | [10] -0.028

ABCE1 (UniProt P61221)
inactive: [1] -0.005 | [2] 0.013 | [3] 0.012 | [4] -0.023 | [5] 0.083 | [6] 0.004 | [7] -0.051 | [8] -0.047 | [9] -0.004 | [10] 0.021

ACTN4 (UniProt O43707)
inactive: [1] 0.021 | [2] 0.013 | [3] 0.007 | [4] -0.013 | [5] 0.035 | [6] 0 | [7] -0.04 | [8] -0.058 | [9] -0.047 | [10] 0.005

ACACB (UniProt O00763)
inactive: [1] -0.166 | [2] -0.383 | [4] 0.087 | [5] -0.083 | [6] 0.016 | [7] 0.291 | [8] 0.228 | [9] 0.089 | [10] -0.137

ABRAXAS1 (UniProt Q6UWZ7)
inactive: [1] 0.088 | [2] 0.165 | [3] 0.336 | [4] 0.034 | [5] 0.015 | [6] 0.19 | [7] 0.501 | [8] -0.02 | [9] -0.013 | [10] -0.015

ADCK1 (UniProt Q86TW2)
inactive: [1] -0.098 | [2] 0.084 | [3] -0.091 | [4] -0.094 | [5] -0.133 | [6] 0.006 | [8] -0.081 | [10] -0.093

ACAT1, A0A5F9ZHJ0
inactive: [1] 0.068 | [2] 0.133 | [3] 0.142 | [4] -0.025 | [7] -0.386 | [8] -0.093 | [9] -0.051

Reprinted at random: 2 entries already listed.
ACAD8 (UniProt Q9UKU7)
inactive: [1] 0.046 | [2] 0.048 | [3] -0.007 | [4] -0.036 | [5] -0.072 | [6] 0.004 | [7] -0.189 | [8] -0.098 | [9] -0.007 | [10] 0.028

AAMDC (UniProt Q9H7C9)
inactive: [1] 0.034 | [2] 0.026 | [3] -0.033 | [4] 0.032 | [5] 0.009 | [6] 0 | [7] -0.056 | [8] -0.007 | [9] 0.004 | [10] -0.007

(listing goes on)

ACOX1 isoform 2 (UniProt Q15067)
inactive: [1] 0.04 | [2] 0.041 | [3] -0.048 | [4] 0.019 | [5] 0.038 | [6] 0.004 | [7] -0.038 | [8] -0.004 | [9] -0.031 | [10] 0.052

ACP2 (UniProt P11117)
inactive: [1] 0.026 | [2] 0.022 | [4] -0.036 | [5] -0.006 | [6] 0.01 | [7] -0.089 | [8] -0.055 | [9] 0.018 | [10] -0.006

ACADSB (UniProt P45954)
inactive: [1] -0.019 | [2] 0.084 | [3] -0.066 | [4] 0.071 | [5] 0.008 | [6] -0.048 | [7] -0.041 | [8] 0.057 | [9] -0.019 | [10] 0.009

ADAL (UniProt Q6DHV7)
inactive: [1] 0.025 | [2] 0.011 | [3] 0.005 | [4] -0.039 | [5] -0.038 | [6] 0.029 | [7] -0.066 | [8] -0.022 | [9] -0.029 | [10] 0.024

ABCE1 (UniProt H0Y990)
inactive: [1] 0.036 | [2] 0.081 | [3] 0.02 | [4] -0.075 | [5] -0.008 | [6] -0.038 | [7] -0.244 | [8] -0.05 | [9] -0.004 | [10] 0.092

ABHD12 isoform 2 (UniProt Q8N2K0)
inactive: [1] -0.067 | [2] -0.013 | [3] -0.063 | [4] 0.032 | [5] 0.014 | [6] 0.021 | [7] 0.06 | [8] 0.004 | [9] 0.066 | [10] -0.001

ADAR isoform 4 (UniProt P55265)
inactive: [1] 0.182 | [2] -0.126 | [3] 0.054 | [4] 0.02 | [5] 0.058 | [6] 0.052 | [7] -0.232 | [8] -0.025 | [9] -0.079 | [10] 0.218

ACAT1 (UniProt P24752)
inactive: [1] 0.016 | [2] -0.016 | [3] -0.017 | [4] 0.003 | [5] -0.037 | [6] 0.002 | [7] -0.052 | [8] -0.074 | [9] -0.011 | [10] 0.06

ACYP1 (UniProt P07311)
inactive: [1] 0.006 | [2] 0.032 | [3] -0.064 | [4] 0.013 | [5] 0.089 | [6] -0.027 | [7] -0.071 | [8] -0.057 | [9] -0.062 | [10] 0.011

ACLY (UniProt P53396)
inactive: [1] 0.018 | [2] 0.036 | [3] -0.035 | [4] -0.016 | [5] -0.006 | [6] -0.01 | [7] -0.019 | [8] -0.035 | [9] -0.001 | [10] -0.004
